According to patent publication US20250319098A1, “HORMONE REPLENISHMENT METHOD WITH A HYDROGEL POLYMER” (VITALTE LIFESCIENCES INC., priority 2024, published 2025):
For at least one compound, name, drawing or mass did not settle the structure.

Key:
[1] = E2 release from hydrogel microspheres versus pellet and powder; type: physicochemical; settings: all runs
[2] = E2 release from hydrogel discs, E2 pellets and E2 powder into incubation medium (ELISA); settings: 50 mL incubation medium, 37° C., 6 rpm, no hyaluronidase

For `C[C@]12CC[C@@H]3c4ccc(O)cc4CC[C@H]3[C@@H]1CC[C@@H]2O` [Embodiment E2, Estradiol], the “E2 release level on day 3” value [1] was “approximates the saturation level of E2 in the incubation medium”, the “E2 released into the incubation media (accumulated concentration)” value (“E2 released into the incubation media” for short) ([2]; day 1 / 24 hours) was “about 1.85 mg/L” and the “E2 released into the incubation media” value ([2]; day 2 / 48 hours) was “reached the saturation point of the incubation media”. The “E2 released into the incubation media” value ([2]; day 3 / 72 hours) was “maintained the saturation point concentration”.
